Laboratory results from PMC9617928.
Like-named read-outs stand apart in the source and are kept apart here. These are yes or no findings as the source states them, for the method shown. In cells and extracts the contact can be indirect. Some results given as binding are weak or reduced against the parent protein; the word gives no strength. For some assays here: Where a sequence is shown, tags or fusion partners need not be part of it.

Chains of the proteins cited; added tags and fusions are not shown.
UniProt P31749: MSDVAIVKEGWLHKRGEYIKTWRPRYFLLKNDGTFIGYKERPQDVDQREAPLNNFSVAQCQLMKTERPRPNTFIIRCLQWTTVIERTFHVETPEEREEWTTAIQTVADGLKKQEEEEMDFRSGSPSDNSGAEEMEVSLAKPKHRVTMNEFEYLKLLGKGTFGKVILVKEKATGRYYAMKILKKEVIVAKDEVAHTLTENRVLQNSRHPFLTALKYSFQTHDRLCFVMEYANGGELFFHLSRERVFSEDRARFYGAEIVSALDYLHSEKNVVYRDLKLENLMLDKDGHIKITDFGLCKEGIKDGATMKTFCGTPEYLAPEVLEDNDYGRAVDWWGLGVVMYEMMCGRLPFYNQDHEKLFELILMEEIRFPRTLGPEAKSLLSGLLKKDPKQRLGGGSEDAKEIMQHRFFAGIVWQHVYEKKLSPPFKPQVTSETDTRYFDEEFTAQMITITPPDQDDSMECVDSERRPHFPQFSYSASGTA
UniProt P31751: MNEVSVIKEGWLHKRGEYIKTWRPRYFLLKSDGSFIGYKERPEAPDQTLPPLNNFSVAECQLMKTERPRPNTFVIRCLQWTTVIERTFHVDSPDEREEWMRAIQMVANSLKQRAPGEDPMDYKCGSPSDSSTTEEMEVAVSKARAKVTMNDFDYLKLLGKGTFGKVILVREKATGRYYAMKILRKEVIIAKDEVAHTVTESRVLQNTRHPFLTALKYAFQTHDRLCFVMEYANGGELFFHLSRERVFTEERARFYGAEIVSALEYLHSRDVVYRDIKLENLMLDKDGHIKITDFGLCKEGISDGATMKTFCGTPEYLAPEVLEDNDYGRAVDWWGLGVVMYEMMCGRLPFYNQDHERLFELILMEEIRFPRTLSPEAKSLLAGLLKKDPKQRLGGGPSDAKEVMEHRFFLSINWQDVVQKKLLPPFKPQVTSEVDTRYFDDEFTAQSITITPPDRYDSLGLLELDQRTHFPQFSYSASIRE
UniProt Q9Y243: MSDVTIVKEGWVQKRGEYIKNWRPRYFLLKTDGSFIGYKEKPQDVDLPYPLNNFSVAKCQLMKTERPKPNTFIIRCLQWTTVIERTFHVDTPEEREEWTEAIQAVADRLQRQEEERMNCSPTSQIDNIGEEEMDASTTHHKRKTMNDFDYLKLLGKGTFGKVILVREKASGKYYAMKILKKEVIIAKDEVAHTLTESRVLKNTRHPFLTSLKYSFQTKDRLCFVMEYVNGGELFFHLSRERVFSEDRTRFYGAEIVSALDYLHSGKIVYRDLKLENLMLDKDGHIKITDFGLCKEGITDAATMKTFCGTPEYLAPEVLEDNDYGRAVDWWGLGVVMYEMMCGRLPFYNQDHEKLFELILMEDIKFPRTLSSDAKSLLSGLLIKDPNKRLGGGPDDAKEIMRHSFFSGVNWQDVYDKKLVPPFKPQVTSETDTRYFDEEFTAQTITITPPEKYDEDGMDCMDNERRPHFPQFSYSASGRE
UniProt Q15046: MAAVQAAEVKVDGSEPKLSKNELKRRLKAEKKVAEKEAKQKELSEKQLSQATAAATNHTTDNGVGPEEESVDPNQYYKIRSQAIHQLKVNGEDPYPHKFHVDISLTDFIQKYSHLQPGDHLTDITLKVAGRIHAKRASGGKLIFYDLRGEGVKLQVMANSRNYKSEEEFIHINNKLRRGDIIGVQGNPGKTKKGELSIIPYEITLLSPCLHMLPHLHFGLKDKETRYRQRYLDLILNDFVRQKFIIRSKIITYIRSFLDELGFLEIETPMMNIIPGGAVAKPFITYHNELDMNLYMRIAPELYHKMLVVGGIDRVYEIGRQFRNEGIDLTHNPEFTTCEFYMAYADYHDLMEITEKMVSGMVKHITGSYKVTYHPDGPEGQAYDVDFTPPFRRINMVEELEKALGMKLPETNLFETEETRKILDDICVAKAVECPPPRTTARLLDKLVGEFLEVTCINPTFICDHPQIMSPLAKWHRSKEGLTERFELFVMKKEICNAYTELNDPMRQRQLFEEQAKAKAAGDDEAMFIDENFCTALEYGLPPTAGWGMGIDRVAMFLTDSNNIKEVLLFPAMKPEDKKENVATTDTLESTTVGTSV

Experiments:
GST-AKT1 = GST-AKT1 (UniProt P31749); assay: pull-down; 293T cells cotransfected with GST-AKT1 and EPRS1-FLAG; Glutathione precipitation, immunoblot with anti-FLAG
Strep-AKT2 = Strep-AKT2 (UniProt P31751); assay: pull-down; 293T cells cotransfected with a Strep-tagged and an HA- or FLAG-tagged protein; Strep precipitation (Strep-Tactin beads), immunoblot with anti-HA or anti-FLAG
Strep-AKT1 [1] = molecular target: Strep-AKT1 (UniProt P31749); assay: as above
Strep-AKT3 = Strep-AKT3 (UniProt Q9Y243); assay: as above
[2] = molecular target: Strep-EPRS1 (glutamyl-prolyl-tRNA synthetase 1, Strep-tagged) (human) (UniProt P07814); assay: as above
[3] = molecular target: EPRS1, endogenous in U937 cells (human (endogenous in U937)) (UniProt P07814); assay: co-IP; endogenous IP with anti-EPRS1 from U937 lysates, blots with anti-MARS1, anti-AIMP3, anti-KARS1; cells treated with LPS (100 ng/ml) for various times, IFNγ (100 ng/ml) as positive control
[4] = molecular target: AKT1-FLAG, full-length (aa 1-481) (UniProt P31749); assay: co-IP; lysates of 293T cells expressing Strep-EPRS1 and AKT1-FLAG proteins; anti-FLAG immunoprecipitation, immunoblot with anti-Strep
[5] = molecular target: T1, EPRS1, endogenous in U937 cells (human (endogenous in U937)), P07814; assay: co-IP; endogenous IP with anti-EPRS1 from U937 lysates, blots with anti-MARS1, anti-AIMP3, anti-KARS1; cells treated with LPS (100 ng/ml) for various times, IFNγ (100 ng/ml) as positive control; conditions: remark: other sources report otherwise
T1 chain: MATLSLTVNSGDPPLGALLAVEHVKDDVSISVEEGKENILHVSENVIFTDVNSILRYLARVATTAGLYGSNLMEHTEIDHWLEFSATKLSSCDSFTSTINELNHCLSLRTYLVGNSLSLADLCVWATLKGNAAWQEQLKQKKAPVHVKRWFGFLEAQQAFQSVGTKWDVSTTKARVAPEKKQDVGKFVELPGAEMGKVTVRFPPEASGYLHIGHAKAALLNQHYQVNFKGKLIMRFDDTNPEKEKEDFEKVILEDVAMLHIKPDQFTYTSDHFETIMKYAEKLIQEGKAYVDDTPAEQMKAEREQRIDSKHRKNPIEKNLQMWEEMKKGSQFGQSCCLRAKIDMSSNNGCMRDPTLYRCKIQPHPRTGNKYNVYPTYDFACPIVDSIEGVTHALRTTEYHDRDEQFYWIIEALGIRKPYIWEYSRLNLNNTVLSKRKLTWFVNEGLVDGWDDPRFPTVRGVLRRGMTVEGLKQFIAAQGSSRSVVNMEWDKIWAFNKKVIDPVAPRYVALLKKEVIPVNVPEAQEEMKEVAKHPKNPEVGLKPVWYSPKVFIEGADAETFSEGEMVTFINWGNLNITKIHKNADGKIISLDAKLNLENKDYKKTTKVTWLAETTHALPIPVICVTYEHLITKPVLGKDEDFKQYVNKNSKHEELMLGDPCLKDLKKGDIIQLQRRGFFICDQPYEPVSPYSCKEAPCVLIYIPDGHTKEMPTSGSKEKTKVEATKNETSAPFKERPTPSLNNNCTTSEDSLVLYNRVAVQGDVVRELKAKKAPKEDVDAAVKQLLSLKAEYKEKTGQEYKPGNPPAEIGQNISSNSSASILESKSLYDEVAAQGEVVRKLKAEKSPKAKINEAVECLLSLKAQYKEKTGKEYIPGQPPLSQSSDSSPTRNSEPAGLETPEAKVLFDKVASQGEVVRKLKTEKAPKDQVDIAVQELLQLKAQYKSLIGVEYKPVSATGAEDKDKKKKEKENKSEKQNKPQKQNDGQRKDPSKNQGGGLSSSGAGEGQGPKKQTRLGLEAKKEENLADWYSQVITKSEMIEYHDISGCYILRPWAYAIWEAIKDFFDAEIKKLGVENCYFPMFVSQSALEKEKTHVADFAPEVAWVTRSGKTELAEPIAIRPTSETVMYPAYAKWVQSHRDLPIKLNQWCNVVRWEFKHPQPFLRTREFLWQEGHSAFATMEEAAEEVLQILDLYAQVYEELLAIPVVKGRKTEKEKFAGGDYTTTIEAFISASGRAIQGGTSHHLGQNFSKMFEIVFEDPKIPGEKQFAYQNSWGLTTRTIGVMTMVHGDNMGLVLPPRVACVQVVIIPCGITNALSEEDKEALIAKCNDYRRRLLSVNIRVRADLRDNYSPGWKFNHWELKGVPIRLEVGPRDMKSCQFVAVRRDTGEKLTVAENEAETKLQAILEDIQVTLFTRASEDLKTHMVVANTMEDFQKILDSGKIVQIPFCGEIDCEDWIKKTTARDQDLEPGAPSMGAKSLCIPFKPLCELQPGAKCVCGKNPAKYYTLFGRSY

Strep-AKT1 [6] = molecular target: Strep-AKT1 (UniProt P31749); assay: pull-down; 293T cells cotransfected with a Strep-tagged and an HA- or FLAG-tagged protein; Strep precipitation (Strep-Tactin beads), immunoblot with anti-HA or anti-FLAG; remark: listed apart in the source

“EPRS1-FLAG, full-length (aa 1-1512) (from UniProt P07814 1-1512) (enzyme)” was tested, and the binding (GST-AKT1) was “binds”, the binding (Strep-AKT2) was “binds” and the binding (Strep-AKT1 [1]) was “binds”. The binding (Strep-AKT3) was “binds”.

In the case of “HA-AKT1 (from UniProt P31749 1-480) (enzyme)”, the binding [2] is reported as “binds”.

For “KARS1, endogenous in U937 cells (from UniProt Q15046 1-597) (enzyme)”, the binding [3] was “binds”.

For “Strep-EPRS1 (glutamyl-prolyl-tRNA synthetase 1, Strep-tagged) (from UniProt P07814 1-1512) (enzyme)”, the binding [4] was “binds”.

B1: MARS1, endogenous in U937 cells, P56192 1-900 (enzyme)
chain: MRLFVSDGVPGCLPVLAAAGRARGRAEVLISTVGPEDCVVPFLTRPKVPVLQLDSGNYLFSTSAICRYFFLLSGWEQDDLTNQWLEWEATELQPALSAALYYLVVQGKKGEDVLGSVRRALTHIDHSLSRQNCPFLAGETESLADIVLWGALYPLLQDPAYLPEELSALHSWFQTLSTQEPCQRAAETVLKQQGVLALRPYLQKQPQPSPAEGRAVTNEPEEEELATLSEEEIAMAVTAWEKGLESLPPLRPQQNPVLPVAGERNVLITSALPYVNNVPHLGNIIGCVLSADVFARYSRLRQWNTLYLCGTDEYGTATETKALEEGLTPQEICDKYHIIHADIYRWFNISFDIFGRTTTPQQTKITQDIFQQLLKRGFVLQDTVEQLRCEHCARFLADRFVEGVCPFCGYEEARGDQCDKCGKLINAVELKKPQCKVCRSCPVVQSSQHLFLDLPKLEKRLEEWLGRTLPGSDWTPNAQFITRSWLRDGLKPRCITRDLKWGTPVPLEGFEDKVFYVWFDATIGYLSITANYTDQWERWWKNPEQVDLYQFMAKDNVPFHSLVFPCSALGAEDNYTLVSHLIATEYLNYEDGKFSKSRGVGVFGDMAQDTGIPADIWRFYLLYIRPEGQDSAFSWTDLLLKNNSELLNNLGNFINRAGMFVSKFFGGYVPEMVLTPDDQRLLAHVTLELQHYHQLLEKVRIRDALRSILTISRHGNQYIQVNEPWKRIKGSEADRQRAGTVTGLAVNIAALLSVMLQPYMPTVSATIQAQLQLPPPACSILLTNFLCTLPAGHQIGTVSPLFQKLENDQIESLRQRFGGGQAKTSPKPAVVETVTTAKPQQIQALMDEVTKQGNIVRELKAQKADKNEVAAEVAKLLDLKKQLAVAEGKPPEAPKGKKKK
With B1 the binding [5] was “binds”.

B2: FLAG-tagged EPRS1 PARS1 domain (aa 1024-1512) (domain or fragment, UniProt P07814 1024-1512)
chain: LADWYSQVITKSEMIEYHDISGCYILRPWAYAIWEAIKDFFDAEIKKLGVENCYFPMFVSQSALEKEKTHVADFAPEVAWVTRSGKTELAEPIAIRPTSETVMYPAYAKWVQSHRDLPIKLNQWCNVVRWEFKHPQPFLRTREFLWQEGHSAFATMEEAAEEVLQILDLYAQVYEELLAIPVVKGRKTEKEKFAGGDYTTTIEAFISASGRAIQGGTSHHLGQNFSKMFEIVFEDPKIPGEKQFAYQNSWGLTTRTIGVMTMVHGDNMGLVLPPRVACVQVVIIPCGITNALSEEDKEALIAKCNDYRRRLLSVNIRVRADLRDNYSPGWKFNHWELKGVPIRLEVGPRDMKSCQFVAVRRDTGEKLTVAENEAETKLQAILEDIQVTLFTRASEDLKTHMVVANTMEDFQKILDSGKIVQIPFCGEIDCEDWIKKTTARDQDLEPGAPSMGAKSLCIPFKPLCELQPGAKCVCGKNPAKYYTLFGRSY
With B2 the binding (Strep-AKT1 [6]) was “binds”.

B3: FLAG-tagged EPRS1 EARS1 domain (aa 197-682) (domain or fragment, UniProt P07814 197-682)
chain: KVTVRFPPEASGYLHIGHAKAALLNQHYQVNFKGKLIMRFDDTNPEKEKEDFEKVILEDVAMLHIKPDQFTYTSDHFETIMKYAEKLIQEGKAYVDDTPAEQMKAEREQRIDSKHRKNPIEKNLQMWEEMKKGSQFGQSCCLRAKIDMSSNNGCMRDPTLYRCKIQPHPRTGNKYNVYPTYDFACPIVDSIEGVTHALRTTEYHDRDEQFYWIIEALGIRKPYIWEYSRLNLNNTVLSKRKLTWFVNEGLVDGWDDPRFPTVRGVLRRGMTVEGLKQFIAAQGSSRSVVNMEWDKIWAFNKKVIDPVAPRYVALLKKEVIPVNVPEAQEEMKEVAKHPKNPEVGLKPVWYSPKVFIEGADAETFSEGEMVTFINWGNLNITKIHKNADGKIISLDAKLNLENKDYKKTTKVTWLAETTHALPIPVICVTYEHLITKPVLGKDEDFKQYVNKNSKHEELMLGDPCLKDLKKGDIIQLQRRGFFICDQ
With B3 the binding (Strep-AKT1 [6]) was “binds”.

B4: AIMP3, endogenous in U937 cells (protein, UniProt O43324 1-174)
chain: MAAAAELSLLEKSLGLSKGNKYSAQGERQIPVLQTNNGPSLTGLTTIAAHLVKQANKEYLLGSTAEEKAIVQQWLEYRVTQVDGHSSKNDIHTLLKDLNSYLEDKVYLTGYNFTLADILLYYGLHRFIVDLTVQEKEKYLNVSRWFCHIQHYPGIRQHLSSVVFIKNRLYTNSH
For B4, the binding [3] was “binds”.
